Patent US20100035257A1
Substitutions are numbered along the chain they refer to. In names and notes the source's numbering stands. These are yes or no findings as the source states them, for the method shown. For part of these data: Binding seen in cells or lysates may run through a third protein. Some binding calls cover weakened binding; strength is not graded here. Blank lines part the entries; values can stand above or below the binder they belong to.

Sequences of proteins named here, by UniProt entry; tags and fusion partners are left off. A change or cut given only in a name is not applied to a line headed by its entry.
UniProt Q9H3D4: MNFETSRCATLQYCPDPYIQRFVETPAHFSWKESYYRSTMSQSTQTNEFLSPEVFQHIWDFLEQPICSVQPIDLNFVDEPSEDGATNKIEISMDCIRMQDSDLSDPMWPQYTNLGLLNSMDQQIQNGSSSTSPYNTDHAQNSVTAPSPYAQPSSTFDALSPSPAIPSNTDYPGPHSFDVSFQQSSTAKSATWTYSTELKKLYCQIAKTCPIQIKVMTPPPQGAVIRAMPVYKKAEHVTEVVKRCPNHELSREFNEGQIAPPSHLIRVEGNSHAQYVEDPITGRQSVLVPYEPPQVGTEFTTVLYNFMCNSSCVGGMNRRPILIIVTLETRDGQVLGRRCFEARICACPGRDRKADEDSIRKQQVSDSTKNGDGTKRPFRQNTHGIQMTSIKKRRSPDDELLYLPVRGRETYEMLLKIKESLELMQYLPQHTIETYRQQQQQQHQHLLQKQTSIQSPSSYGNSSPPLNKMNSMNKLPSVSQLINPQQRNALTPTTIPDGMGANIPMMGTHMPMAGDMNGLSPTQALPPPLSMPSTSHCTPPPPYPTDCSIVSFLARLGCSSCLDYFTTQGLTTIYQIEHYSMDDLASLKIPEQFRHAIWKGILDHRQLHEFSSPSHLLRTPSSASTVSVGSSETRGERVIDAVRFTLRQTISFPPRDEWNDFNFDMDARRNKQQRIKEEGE

Tests used:
ΔNp63α (human) [1] = target: T1, ΔNp63α (human) (UniProt Q9H3D4); assay: co-IP after STI-571 pretreatment and cisplatin
T1 sequence: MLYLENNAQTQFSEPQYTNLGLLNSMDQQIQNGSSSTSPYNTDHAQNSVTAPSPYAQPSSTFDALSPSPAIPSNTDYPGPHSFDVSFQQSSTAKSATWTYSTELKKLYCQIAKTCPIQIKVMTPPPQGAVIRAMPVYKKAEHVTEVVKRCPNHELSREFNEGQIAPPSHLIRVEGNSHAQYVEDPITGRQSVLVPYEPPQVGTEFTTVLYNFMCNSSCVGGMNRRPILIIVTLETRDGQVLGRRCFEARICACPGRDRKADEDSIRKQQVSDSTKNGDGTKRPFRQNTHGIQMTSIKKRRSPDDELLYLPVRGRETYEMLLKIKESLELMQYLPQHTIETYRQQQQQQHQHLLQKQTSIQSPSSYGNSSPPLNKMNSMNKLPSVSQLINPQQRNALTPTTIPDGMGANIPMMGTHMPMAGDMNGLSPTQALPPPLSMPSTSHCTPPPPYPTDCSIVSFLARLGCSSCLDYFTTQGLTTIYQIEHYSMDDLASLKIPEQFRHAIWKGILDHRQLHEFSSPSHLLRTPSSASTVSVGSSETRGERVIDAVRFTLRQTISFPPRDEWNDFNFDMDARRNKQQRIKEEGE

ΔNp63α (human) [2] = target: T1, ΔNp63α (human); assay: co-IP after imatinib pretreatment and cisplatin
ΔNp63α (human) [3] = target: T1, ΔNp63α (human); assay: IP for p63 or p73 with immunoblot, with or without imatinib and cisplatin
ΔNp63α (human) [4] = target: T1, ΔNp63α (human); assay: co-IP and post-IP supernatants, cisplatin-treated against untreated cells
ΔNp63α (human) [5] = target: T1, ΔNp63α (human); assay: co-immunoprecipitation of endogenous proteins and immunodepletion, HCC-1937 and T47D lysates
ΔNp63α (human) [6] = target: T1, ΔNp63α (human); assay: IP for p63 with immunoblot, cisplatin-treated cultures (IC70 for 6 hours), HCC-1937 and MDA-MB-468
ΔNp63α (human) [7] = target: T1, ΔNp63α (human); assay: co-immunoprecipitation of endogenous proteins and immunodepletion, HCC-1937 and MDA-MB-468 lysates
ΔNp63α (human) [8] = target: T1, ΔNp63α (human); assay: IP for p63 or p73 with immunoblot of IP product and post-IP supernatant; HCC-1937 (11A), with similar quantitative binding in MDA-MB-468 (11B)
ΔNp63α (human) [9] = target: T1, ΔNp63α (human); assay: co-IP after cisplatin treatment (data not shown)

- binding (ΔNp63α (human) [1]): binds
- binding (ΔNp63α (human) [2]): binds
- binding (ΔNp63α (human) [3]): binds
- binding (ΔNp63α (human) [4]): binds
- binding (ΔNp63α (human) [5]): binds
- binding (ΔNp63α (human) [6]): binds
- binding (ΔNp63α (human) [7]): binds
- binding (ΔNp63α (human) [8]): binds
B1: TAp73 (endogenous) (protein)
chain: MAQSTATSPDGGTTFEHLWSSLEPDSTYFDLPQSSRGNNEVVGGTDSSMDVFHLEGMTTSVMAQFNLLSSTMDQMSSRAASASPYTPEHAASVPTHSPYAQPSSTFDTMSPAPVIPSNTDYPGPHHFEVTFQQSSTAKSATWTYSPLLKKLYCQIAKTCPIQIKVSTPPPPGTAIRAMPVYKKAEHVTDVVKRCPNHELGRDFNEGQSAPASHLIRVEGNNLSQYVDDPVTGRQSVVVPYEPPQVGTEFTTILYNFMCNSSCVGGMNRRPILIIITLEMRDGQVLGRRSFEGRICACPGRDRKADEDHYREQQALNESSAKNGAASKRAFKQSPPAVPALGAGVKKRRHGDEDTYYLQVRGRENFEILMKLKESLELMELVPQPLVDSYRQQQQLLQRPSHLQPPSYGPVLSPMNKVHGGMNKLPSVNQLVGQPPPHSSAATPNLGPVGPGMLNNHGHAVPANGEMSSSHSAQSMVSGSHCTPPPPYHADPSLVSFLTGLGCPNCIEYFTSQGLQSIYHLQNLTIEDLGALKIPEQYRMTIWRGLQDLKQGHDYSTAQQLLRSSNAATISIGGSGELQRQRVMEAVHFRVRHTITIPNRGGPGGGPDEWADFGFDLPDCKARKQPIKEEFTEAEIH

- binding (ΔNp63α (human) [9]): binds
B2: Y121F TAp73 (protein)
chain: B1 chain with Y121F
